Earlier results as cited in patent publication US20220362210A1 (Luckwel Pharmaceuticals Inc., priority 2021, published 2022).
Where a name gives a salt, the structure may show the parent alone.

What was measured:
[1] = wide range of pharmaceutical formulations
[2] = geriatric population compared with young adults

stability in pharmaceutical formulations [1]: stable
time to reach maximum plasma concentrations (dosed between 10 and 80 mg once daily): 1 to 2 h
AUC, geriatric population versus young adults [2]: 30 % higher
Cmax, geriatric population versus young adults [2]: 40 % higher
Cmax in patients with hepatic insufficiency (hepatic insufficiency (e.g., chronic alcoholic liver disease)): 4 times higher
AUC, women versus men (women compared with men): 10 % lower
Cmax, women versus men (women compared with men): 20 % higher
SMILES: CC(C)c1c(C(=O)Nc2ccccc2)c(-c2ccccc2)c(-c2ccc(F)cc2)n1CC[C@@H](O)C[C@@H](O)CC(=O)O (relative stereo) [Atorvastatin, [R—(R*,R*)]-2-(4-fluorophenyl)-β,δ-dihydroxy-5-(1-methylethyl)-3-phenyl-4-[(phenylamino)carbonyl]-1H-pyrrole-1-heptanoic acid, calcium salt (2:1)]
